{"source": "patent US11802258B2", "about": "“Perfume precursor” (TAKASAGO INTERNATIONAL CORPORATION, priority 2017, dated 2023)"}
{"test_system": "lipase preparation AY “Amano” 30SD", "assay": "Lipase-induced scent emission test, lipase preparation AY “Amano” 30SD", "format": "biochemical", "conditions": "compound released, GC/MS of head space", "method": "10 mg of a fragrance precursor and 1 g of an aqueous 1% lipase preparation solution were put in a vial bottle and mixed and after hermetically sealing the bottle, the mixture was subjected to GC/MS analysis of the head space component to obtain a peak area of the scent-emitting compound. As a control, water was used in place of the aqueous 1% lipase preparation solution, and a peak area of the control was obtained by the same method. The scent emission amount was determined from the difference between the obtained peak area of the scent-emitting compound and the peak area of the control.\n(GC/MS Measurement Conditions)\nMeasurement instrument: 7890GC/5975M (manufactured by Agilent Technologies) • Column: BC-WAX50 m×0.25 mm I.D. • Temperature rise: 70° C. to 220° C., 4° C./min • Split ratio: 60:1"}
{"smiles": "O=C(OCCc1ccccc1)c1ccccc1", "note": "[phenylethyl benzoate]", "Scent-Emitting Compound": "phenylethyl alcohol"}
{"smiles": "O=C(C=Cc1ccccc1)OCCc1ccccc1", "note": "[phenylethyl cinnamate]", "Scent-Emitting Compound": "phenylethyl alcohol"}
{"smiles": "O=C(Cc1ccccc1)OCCc1ccccc1", "note": "[phenylethyl phenylacetate]", "Scent-Emitting Compound": "phenylethyl alcohol"}
{"smiles": "CC(C)[C@@H]1CC[C@@H](C)C[C@H]1OC(=O)c1ccccc1", "note": "[Example 6, (1R,2S,5R)-isopropyl-5-methylcyclohexyl benzoate]", "Scent-Emitting Compound": "menthol"}
{"smiles": "COc1ccc(C(=O)OCC[C@@H](C)CC/C=C(\\C)CCC=C(C)C)cc1", "note": "[Example 8, (S,E)-3,7,11-trimethyl-6,10-dodecadienyl Anisate]", "Scent-Emitting Compound": "dihydrofarnesol"}
{"smiles": "C=C(C)CCC[C@H](C)CCOC(=O)Cc1ccccc1", "note": "[rosinyl phenylacetate]", "Scent-Emitting Compound": "rosinol"}
{"smiles": "CC(C)=CCC/C(C)=C/COC(=O)c1ccccc1", "note": "[geranyl benzoate]", "Scent-Emitting Compound": "geraniol"}
{"smiles": "CC(C)=CCC/C(C)=C/COC(=O)Cc1ccccc1", "note": "[geranyl phenylacetate]", "Scent-Emitting Compound": "geraniol"}
{"smiles": "CC/C=C\\CCOC(=O)c1ccccc1O", "note": "[(Z)-3-hexenyl salicylate]", "Scent-Emitting Compound": "(Z)-3-hexenol"}
{"smiles": "CC/C=C\\CCOC(=O)c1ccccc1", "note": "[Example 11, (Z)-3-hexenyl Benzoate]", "Scent-Emitting Compound": "(Z)-3-hexenol"}
{"smiles": "CC(C)=CCC/C(C)=C/CC[C@H](C)CCOC(=O)c1ccccc1", "note": "[Example 7, (S,E)-3,7,11-trimethyl-6,10-dodecadienyl Benzoate]", "Scent-Emitting Compound": "dihydrofarnesol"}
{"smiles": "O=C(C=Cc1ccccc1)OCC=Cc1ccccc1", "note": "[cinnamyl cinnamate]", "Scent-Emitting Compound": "cinnamic alcohol"}
{"test_system": "Propionibacterium acnes JCM6473", "assay": "Scent emission test by microorganism, Propionibacterium acnes", "format": "cell-based", "conditions": "compound released, GC/MS of head space", "method": "Culture of Propionibacterium acnes Strain JCM6473:\n(§1) After inoculating the bacterium in GAM bouillon liquid medium containing Hemin 0.5 ppm and Menadione 0.5 ppm, static culture was performed at 28° C. for 3 days under anaerobic conditions, and 3 mL of the resulting preculture solution was transferred to a vial bottle. 10 mg of each of the fragrance precursors was mixed therewith and after hermetical sealing, static culture was further performed at 28° C. for 3 days.\n(§2) A peak area of the scent-emitting compound was obtained by performing GC/MS analysis of the head space component included in the vial bottle containing 3 mL of a microorganism culture solution in which 10 mg of the fragrance precursor was mixed. A microorganism culture solution having not mixed therein the fragrance precursor was used as the control, and a peak area of the control was obtained by the same method. The scent emission amount was determined from the difference between the obtained peak area of the scent-emitting compound and the peak area of the control.\n(§3) Measurement instrument: 7890GC/5975MSD (manufactured by Agilent Technologies) • Column: BC-WAX 50 m×0.25 mm I.D. • Temperature rise: 70° C. to 220° C., 4° C./min • Split ratio: splitless"}
{"smiles": "CC(C)=CCCC(C)CCOC(=O)Cc1ccccc1", "note": "(stereo not drawn) [citronellyl phenylacetate]", "Scent-Emitting Compound": "citronellol"}
{"test_system": "Malassezia furfur NBRC0656", "assay": "Scent emission test by microorganism, Malassezia furfur", "format": "cell-based", "conditions": "compound released, GC/MS of head space", "method": "Culture of Malassezia furfur Strain NBRC0656:\nas §1, with “Sabouraud” for “GAM bouillon”, “0.1% Tween 80,” for “Hemin 0.5 ppm and Menadione 0.5 ppm,”, “of” for “of each of”, “precursor” for “precursors”\nas §2, §3"}
{"smiles": "CC(C)=CCCC(C)CCOC(=O)Cc1ccccc1", "note": "(stereo not drawn) [citronellyl phenylacetate]", "Scent-Emitting Compound": "citronellol"}
{"test_system": "Moraxella osloensis ATCC19976", "assay": "Scent emission test by microorganism, Moraxella osloensis", "format": "cell-based", "conditions": "compound released, GC/MS of head space", "method": "Culture of Staphylococcus aureus strain NBRC12732, Corynebacterium xerosis strain JCM1324, Pseudomonas aeruginosa strain NBRC13275, and Moraxella osloensis strain ATCC19976:\nAfter inoculating each of bacteria in Muller-Hinton liquid medium, shaking culture was performed at 30° C. for 20 hours, and 3 mL of the resulting preculture solution was transferred to a vial bottle. 10 mg of each of the fragrance precursors was mixed therewith and after hermetical sealing, shaking culture was further performed at 30° C. for 20 hours.\nas §2, §3"}
{"smiles": "CC(C)=CCCC(C)CCOC(=O)Cc1ccccc1", "note": "(stereo not drawn) [citronellyl phenylacetate]", "Scent-Emitting Compound": "citronellol"}
